Data reported in the supplement of paper PMC10849652.
This is one part of the list.

Protein sequences, listed by entry. Tags and fused reporters are not part of them. Lines headed by an entry give the natural chain unless they say otherwise; changes in a name come on top.
UniProt P48506: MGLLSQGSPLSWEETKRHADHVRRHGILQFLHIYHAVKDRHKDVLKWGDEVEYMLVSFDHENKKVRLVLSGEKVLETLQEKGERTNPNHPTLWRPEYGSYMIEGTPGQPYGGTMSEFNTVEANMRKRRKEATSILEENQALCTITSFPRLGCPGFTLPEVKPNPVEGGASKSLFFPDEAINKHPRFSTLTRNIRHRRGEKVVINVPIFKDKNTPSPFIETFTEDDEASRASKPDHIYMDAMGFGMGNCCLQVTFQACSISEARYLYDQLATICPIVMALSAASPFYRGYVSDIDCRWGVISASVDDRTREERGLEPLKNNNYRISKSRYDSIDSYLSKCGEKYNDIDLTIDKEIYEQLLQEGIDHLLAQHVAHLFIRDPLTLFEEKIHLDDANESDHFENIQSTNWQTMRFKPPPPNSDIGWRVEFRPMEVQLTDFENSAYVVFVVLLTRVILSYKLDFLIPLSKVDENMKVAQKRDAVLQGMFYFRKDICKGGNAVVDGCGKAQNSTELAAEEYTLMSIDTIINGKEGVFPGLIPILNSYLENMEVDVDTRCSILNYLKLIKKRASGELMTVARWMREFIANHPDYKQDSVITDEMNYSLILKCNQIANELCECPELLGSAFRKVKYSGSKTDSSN
UniProt Q9UPW0: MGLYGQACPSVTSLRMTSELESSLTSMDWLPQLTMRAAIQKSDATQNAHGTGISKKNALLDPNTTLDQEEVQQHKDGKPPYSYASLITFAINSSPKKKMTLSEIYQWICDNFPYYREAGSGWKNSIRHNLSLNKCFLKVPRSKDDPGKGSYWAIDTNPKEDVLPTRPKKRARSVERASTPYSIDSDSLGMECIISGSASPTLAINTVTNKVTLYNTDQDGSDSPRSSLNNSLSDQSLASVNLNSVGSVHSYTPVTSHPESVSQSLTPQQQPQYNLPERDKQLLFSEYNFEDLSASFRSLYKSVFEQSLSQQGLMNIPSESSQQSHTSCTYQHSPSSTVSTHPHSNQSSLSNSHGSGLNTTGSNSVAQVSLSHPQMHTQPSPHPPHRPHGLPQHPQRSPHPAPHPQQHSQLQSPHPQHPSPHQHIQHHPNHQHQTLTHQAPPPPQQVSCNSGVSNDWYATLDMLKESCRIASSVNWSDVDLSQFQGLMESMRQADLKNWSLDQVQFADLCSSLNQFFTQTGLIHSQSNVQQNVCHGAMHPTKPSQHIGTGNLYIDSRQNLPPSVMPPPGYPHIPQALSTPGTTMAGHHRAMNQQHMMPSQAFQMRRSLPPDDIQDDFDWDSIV
UniProt P16383: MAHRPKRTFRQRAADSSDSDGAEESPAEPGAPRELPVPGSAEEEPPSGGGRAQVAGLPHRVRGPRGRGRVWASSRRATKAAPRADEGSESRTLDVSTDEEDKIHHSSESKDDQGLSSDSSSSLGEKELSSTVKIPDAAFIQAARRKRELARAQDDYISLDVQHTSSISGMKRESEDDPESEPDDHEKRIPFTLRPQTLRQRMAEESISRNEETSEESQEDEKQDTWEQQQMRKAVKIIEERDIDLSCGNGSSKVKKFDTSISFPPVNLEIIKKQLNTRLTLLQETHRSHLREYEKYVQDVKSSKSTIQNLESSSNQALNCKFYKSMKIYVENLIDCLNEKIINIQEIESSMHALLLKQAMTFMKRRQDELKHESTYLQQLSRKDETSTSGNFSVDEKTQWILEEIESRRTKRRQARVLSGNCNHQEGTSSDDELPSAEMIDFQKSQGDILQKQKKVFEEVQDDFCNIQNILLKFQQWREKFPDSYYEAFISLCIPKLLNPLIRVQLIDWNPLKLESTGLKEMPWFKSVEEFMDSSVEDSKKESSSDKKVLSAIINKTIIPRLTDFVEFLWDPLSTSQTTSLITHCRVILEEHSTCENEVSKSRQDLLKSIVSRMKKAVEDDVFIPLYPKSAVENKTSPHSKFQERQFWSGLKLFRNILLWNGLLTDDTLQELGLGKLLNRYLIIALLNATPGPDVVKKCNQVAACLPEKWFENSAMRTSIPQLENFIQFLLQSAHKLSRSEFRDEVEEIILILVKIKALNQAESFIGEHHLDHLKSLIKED
UniProt Q86YP4: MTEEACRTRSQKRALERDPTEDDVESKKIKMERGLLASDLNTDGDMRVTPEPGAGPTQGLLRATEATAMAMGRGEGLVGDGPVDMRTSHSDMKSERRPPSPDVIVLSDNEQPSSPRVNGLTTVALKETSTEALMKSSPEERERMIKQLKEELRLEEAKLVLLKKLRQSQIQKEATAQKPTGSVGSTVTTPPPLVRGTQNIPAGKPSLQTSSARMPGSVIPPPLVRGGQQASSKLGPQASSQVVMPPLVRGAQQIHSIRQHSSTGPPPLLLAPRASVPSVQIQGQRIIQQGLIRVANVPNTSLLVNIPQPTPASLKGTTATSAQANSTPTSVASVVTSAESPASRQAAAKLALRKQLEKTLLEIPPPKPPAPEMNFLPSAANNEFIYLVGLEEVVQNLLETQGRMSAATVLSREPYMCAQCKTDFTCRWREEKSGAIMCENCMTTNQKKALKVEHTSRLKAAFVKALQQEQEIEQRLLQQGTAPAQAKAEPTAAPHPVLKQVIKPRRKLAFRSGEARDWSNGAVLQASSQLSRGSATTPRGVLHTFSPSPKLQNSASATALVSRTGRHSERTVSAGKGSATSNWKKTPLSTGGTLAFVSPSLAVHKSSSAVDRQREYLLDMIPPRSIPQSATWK
UniProt Q8WXI9: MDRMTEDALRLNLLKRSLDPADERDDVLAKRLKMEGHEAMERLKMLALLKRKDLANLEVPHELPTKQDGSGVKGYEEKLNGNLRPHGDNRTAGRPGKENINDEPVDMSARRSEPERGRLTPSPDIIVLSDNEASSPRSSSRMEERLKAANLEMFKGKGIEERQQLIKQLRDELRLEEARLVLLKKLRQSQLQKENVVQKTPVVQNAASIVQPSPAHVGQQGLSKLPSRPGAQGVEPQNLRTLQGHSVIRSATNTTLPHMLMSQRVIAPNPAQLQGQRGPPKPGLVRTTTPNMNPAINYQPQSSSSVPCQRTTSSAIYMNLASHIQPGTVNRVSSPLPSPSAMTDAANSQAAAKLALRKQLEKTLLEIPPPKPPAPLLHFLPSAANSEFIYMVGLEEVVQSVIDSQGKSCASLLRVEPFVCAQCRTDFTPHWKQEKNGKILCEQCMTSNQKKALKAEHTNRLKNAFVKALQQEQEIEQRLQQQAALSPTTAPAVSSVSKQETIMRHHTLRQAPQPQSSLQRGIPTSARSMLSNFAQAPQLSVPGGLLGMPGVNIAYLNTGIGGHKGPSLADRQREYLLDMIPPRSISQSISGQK
UniProt P04066: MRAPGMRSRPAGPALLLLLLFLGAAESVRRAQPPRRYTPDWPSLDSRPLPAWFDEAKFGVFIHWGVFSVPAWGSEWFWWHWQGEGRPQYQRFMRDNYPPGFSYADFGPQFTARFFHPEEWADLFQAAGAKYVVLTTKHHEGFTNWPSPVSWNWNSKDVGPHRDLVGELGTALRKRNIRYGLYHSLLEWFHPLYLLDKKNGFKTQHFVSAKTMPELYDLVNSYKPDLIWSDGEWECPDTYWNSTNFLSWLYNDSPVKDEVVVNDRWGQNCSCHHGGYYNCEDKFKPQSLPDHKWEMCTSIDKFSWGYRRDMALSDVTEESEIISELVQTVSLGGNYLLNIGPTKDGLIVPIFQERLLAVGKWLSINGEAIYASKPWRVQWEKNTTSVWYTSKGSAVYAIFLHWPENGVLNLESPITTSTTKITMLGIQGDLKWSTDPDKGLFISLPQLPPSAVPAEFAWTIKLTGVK
UniProt Q13069: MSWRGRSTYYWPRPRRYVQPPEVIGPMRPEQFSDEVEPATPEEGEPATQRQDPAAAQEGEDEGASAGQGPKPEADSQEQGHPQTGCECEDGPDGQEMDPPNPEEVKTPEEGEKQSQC
UniProt P04062: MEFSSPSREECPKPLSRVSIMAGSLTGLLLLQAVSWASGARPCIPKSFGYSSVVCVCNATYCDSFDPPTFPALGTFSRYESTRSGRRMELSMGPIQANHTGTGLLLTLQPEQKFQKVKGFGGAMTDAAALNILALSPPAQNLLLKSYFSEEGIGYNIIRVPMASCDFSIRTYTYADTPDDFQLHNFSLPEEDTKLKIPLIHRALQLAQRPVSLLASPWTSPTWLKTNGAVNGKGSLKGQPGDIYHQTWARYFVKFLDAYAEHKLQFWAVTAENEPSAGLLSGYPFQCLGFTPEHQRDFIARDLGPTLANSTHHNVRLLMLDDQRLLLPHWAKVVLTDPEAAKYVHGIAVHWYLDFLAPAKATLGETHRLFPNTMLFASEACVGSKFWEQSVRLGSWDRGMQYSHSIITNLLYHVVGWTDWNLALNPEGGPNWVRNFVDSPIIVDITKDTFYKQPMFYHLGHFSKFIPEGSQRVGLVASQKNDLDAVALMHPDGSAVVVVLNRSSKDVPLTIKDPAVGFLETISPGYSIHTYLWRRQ
UniProt Q10471: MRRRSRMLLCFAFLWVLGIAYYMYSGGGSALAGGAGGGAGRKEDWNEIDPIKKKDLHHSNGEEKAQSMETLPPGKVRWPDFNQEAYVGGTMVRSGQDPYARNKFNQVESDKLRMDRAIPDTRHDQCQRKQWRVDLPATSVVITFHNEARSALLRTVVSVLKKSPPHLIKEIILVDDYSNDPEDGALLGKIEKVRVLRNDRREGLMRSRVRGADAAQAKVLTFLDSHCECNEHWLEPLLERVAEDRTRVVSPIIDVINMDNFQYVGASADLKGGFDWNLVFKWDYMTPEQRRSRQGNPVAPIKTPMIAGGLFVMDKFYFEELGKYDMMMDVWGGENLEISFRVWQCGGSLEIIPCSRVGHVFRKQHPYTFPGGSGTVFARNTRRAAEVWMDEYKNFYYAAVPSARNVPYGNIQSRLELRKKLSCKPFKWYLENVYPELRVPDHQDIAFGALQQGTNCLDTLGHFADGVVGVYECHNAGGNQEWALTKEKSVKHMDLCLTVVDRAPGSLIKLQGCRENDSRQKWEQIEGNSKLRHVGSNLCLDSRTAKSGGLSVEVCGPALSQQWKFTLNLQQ
UniProt P07902: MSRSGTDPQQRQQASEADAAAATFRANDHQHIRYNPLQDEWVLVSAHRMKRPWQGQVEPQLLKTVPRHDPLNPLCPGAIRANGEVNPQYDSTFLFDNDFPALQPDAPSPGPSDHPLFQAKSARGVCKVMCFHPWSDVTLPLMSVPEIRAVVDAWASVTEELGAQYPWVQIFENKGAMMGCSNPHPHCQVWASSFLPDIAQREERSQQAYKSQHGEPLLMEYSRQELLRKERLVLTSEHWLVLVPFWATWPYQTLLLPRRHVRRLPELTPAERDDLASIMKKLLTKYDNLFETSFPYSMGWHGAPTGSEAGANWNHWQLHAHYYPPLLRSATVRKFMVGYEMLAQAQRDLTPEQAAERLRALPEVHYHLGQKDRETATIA
UniProt Q9UJY4: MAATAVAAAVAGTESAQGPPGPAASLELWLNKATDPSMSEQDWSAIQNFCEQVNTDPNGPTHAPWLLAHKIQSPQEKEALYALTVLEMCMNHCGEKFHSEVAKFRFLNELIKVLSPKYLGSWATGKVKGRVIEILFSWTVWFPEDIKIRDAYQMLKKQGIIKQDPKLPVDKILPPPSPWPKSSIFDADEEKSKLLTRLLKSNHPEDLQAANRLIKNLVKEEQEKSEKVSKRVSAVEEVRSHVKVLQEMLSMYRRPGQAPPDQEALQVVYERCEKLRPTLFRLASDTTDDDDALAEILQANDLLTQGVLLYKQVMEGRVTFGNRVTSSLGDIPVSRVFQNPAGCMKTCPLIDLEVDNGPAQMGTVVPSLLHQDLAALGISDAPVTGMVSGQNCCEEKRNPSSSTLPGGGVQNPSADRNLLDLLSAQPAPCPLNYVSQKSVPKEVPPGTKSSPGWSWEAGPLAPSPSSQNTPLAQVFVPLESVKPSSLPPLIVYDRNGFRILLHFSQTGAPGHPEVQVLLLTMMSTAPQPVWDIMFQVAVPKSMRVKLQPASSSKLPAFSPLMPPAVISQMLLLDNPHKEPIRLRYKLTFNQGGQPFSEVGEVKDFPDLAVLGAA
UniProt P60520, whole entry, looked up: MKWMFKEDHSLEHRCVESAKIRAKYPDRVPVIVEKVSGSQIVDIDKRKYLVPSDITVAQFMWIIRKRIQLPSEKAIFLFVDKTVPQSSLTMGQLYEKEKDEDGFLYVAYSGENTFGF
UniProt Q96CU9: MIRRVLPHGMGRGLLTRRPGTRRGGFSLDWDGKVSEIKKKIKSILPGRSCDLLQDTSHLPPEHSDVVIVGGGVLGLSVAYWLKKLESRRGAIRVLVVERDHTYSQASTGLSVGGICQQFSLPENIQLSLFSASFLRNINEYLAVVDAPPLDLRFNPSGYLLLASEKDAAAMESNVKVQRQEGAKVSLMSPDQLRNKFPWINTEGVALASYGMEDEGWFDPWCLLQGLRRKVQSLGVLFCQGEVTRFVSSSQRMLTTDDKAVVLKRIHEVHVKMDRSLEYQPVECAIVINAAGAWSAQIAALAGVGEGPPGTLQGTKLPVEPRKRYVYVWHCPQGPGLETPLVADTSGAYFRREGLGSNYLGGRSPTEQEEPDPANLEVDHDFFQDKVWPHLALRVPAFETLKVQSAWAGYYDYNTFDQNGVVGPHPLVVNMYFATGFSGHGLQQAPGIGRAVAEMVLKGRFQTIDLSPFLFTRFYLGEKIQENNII

What was measured:
Assay in all cases: log2 fold change, soluble protein after heating vs DMSO (PISA); higher = thermal stabilisation; K562 lysate, 10 uM; active = over 0.2 and 3.5 SD of the protein, either way, in both replicates (recomputed)
[1] = compound: Cc1cn(-c2cc(NC(=O)c3ccc(C)c(Nc4nccc(-c5cccnc5)n4)c3)cc(C(F)(F)F)c2)cn1 [nilotinib]
Summary of the method: (§1)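 Pellets of K562 cells were dounce-homogenised in PBS pH 7.4 with 1 mM MgCl2, and the crude extract was held at 1 mg/mL protein for a 30 min treatment with 10 μM compound. Aliquots were heated for 3 min over 48°C-58°C and pooled before NP-40 was added to 0.5% at 4°C. The supernatant from 21,000xg for 90 min was quantified by TMTpro 16plex LC-MS/MS with channel sums equalised. Values are reported from duplicates as log-two fold change in thermal stability relative to solvent controls.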

[2] = compound: Cc1nc(Nc2n[nH]c3c2CN(C(=O)N[C@H](CN(C)C)c2ccccc2)C3(C)C)c2sccc2n1
Summary of the method: as §1

[3] = compound: Cc1nc(Nc2ncc(C(=O)Nc3c(C)cccc3Cl)s2)cc(N2CCN(CCO)CC2)n1 [dasatinib]
Summary of the method: as §1

[4] = compound: Cc1ncc(-c2ccnc(Nc3ccc(S(C)(=O)=O)cc3)n2)n1C(C)C
Summary of the method: as §1

[5] = compound: Cn1cc(-c2ccc3c(c2)CCN3C(=O)Cc2cccc(C(F)(F)F)c2)c2c(N)ncnc21
Summary of the method: as §1

[6] = compound: Cn1cc(CNCC2CCN(c3ncc(C(=O)NO)cn3)CC2)c2ccccc21 [quisinostat]
Summary of the method: as §1

[7] = compound: Cn1cncc1[C@@](N)(c1ccc(Cl)cc1)c1ccc2c(c1)c(-c1cccc(Cl)c1)cc(=O)n2C [tipifarnib]
Summary of the method: as §1

[8] = compound: NC(=O)Nc1cc(-c2cccc(F)c2)sc1C(=O)N[C@H]1CCCNC1
Summary of the method: as §1

[9] = compound: NC(=O)c1cnc(N[C@@H]2CCCC[C@@H]2N)nc1Nc1cccc(-n2nccn2)c1
Summary of the method: as §1

[10] = compound: NC1(c2ccc(-c3nc4ccn5c(=O)[nH]nc5c4cc3-c3ccccc3)cc2)CCC1
Summary of the method: as §1

Measured: log2 fold change

GCLC (UniProt P48506)
inactive: [1] -0.006 | [2] 0.009 | [3] 0.038 | [4] 0.029 | [5] -0.02 | [6] -0.007 | [7] 0.07 | [8] 0 | [9] 0.024 | [10] 0.012

FOXJ3 (UniProt Q9UPW0)
inactive: [1] 0.156 | [2] -0.053 | [3] -0.013 | [4] -0.008 | [5] -0.063 | [6] -0.055 | [7] -0.017 | [8] 0.042 | [9] 0.017 | [10] -0.115

GALNS (UniProt P34059)
inactive: [1] 0.028 | [2] -0.006 | [3] 0.01 | [4] -0.004 | [5] 0 | [6] 0.02 | [7] -0.015 | [8] 0.019 | [9] 0.084 | [10] -0.02

GABARAPL1 isoform 2 (UniProt Q9H0R8)
inactive: [1] -0.009 | [2] -0.051 | [3] -0.056 | [4] 0.013 | [5] 0.016 | [6] -0.024 | [7] 0.05 | [8] -0.017 | [9] -0.004 | [10] 0.016

GALNT11 (UniProt Q8NCW6)
inactive: [1] -0.019 | [2] 0.023 | [3] 0.012 | [4] 0.021 | [5] -0.021 | [6] -0.041 | [7] 0.045 | [8] 0.04 | [9] -0.009 | [10] -0.028

GCFC2 (UniProt P16383)
inactive: [1] 0.005 | [2] -0.02 | [3] -0.023 | [4] -0.011 | [5] 0.058 | [6] 0 | [7] 0.033 | [8] 0.022 | [9] -0.003 | [10] 0.014

FRRS1 (UniProt Q6ZNA5)
inactive: [1] 0.024 | [2] -0.038 | [3] 0.055 | [4] 0.009 | [5] 0.054 | [6] -0.014 | [7] -0.075 | [8] -0.046 | [9] -0.012 | [10] -0.032

G3BP2 (UniProt Q9UN86)
inactive: [1] -0.033 | [2] -0.02 | [3] -0.007 | [4] -0.01 | [5] 0.009 | [6] 0.017 | [7] 0.012 | [8] 0.002 | [9] 0.01 | [10] 0.063

GBF1 (UniProt Q92538)
inactive: [1] -0.021 | [2] 0.02 | [3] -0.088 | [4] 0.027 | [5] 0.021 | [6] -0.04 | [7] -0.003 | [8] 0.054 | [9] 0.018 | [10] -0.034

GATAD2A isoform 3 (UniProt Q86YP4)
inactive: [1] 0.041 | [2] 0.001 | [3] 0.006 | [4] -0.009 | [5] 0.001 | [6] -0.074 | [7] -0.009 | [8] 0.032 | [9] 0.002 | [10] -0.024

GDI1 (UniProt P31150)
inactive: [1] -0.015 | [2] -0.015 | [3] 0.007 | [4] -0.042 | [5] 0.026 | [6] 0.017 | [7] -0.002 | [8] -0.013 | [9] -0.011 | [10] 0.014

Random excerpt: 2 entries already listed.
GBF1 (UniProt Q92538)
inactive: [1] -0.021 | [2] 0.02 | [3] -0.088 | [4] 0.027 | [5] 0.021 | [6] -0.04 | [7] -0.003 | [8] 0.054 | [9] 0.018 | [10] -0.034

GDI1 (UniProt P31150)
inactive: [1] -0.015 | [2] -0.015 | [3] 0.007 | [4] -0.042 | [5] 0.026 | [6] 0.017 | [7] -0.002 | [8] -0.013 | [9] -0.011 | [10] 0.014

The list goes on:

GATAD2B (UniProt Q8WXI9)
inactive: [1] 0.05 | [2] 0.008 | [3] -0.01 | [4] 0.004 | [5] 0.011 | [6] -0.121 | [7] -0.009 | [8] 0.031 | [9] 0.002 | [10] -0.022

FUCA1 (UniProt P04066)
inactive: [1] -0.007 | [2] -0.014 | [3] 0.03 | [4] -0.049 | [5] 0.006 | [6] -0.074 | [7] 0.026 | [8] -0.005 | [9] 0.048 | [10] -0.028

GAGE5 (UniProt Q13069)
inactive: [1] -0.039 | [2] 0.023 | [3] 0.018 | [4] -0.037 | [5] -0.113 | [6] -0.047 | [7] 0.02 | [8] -0.017 | [9] -0.016 | [10] 0.007

GBA (UniProt P04062)
inactive: [1] 0.051 | [2] 0.014 | [3] -0.07 | [4] 0.012 | [5] 0.041 | [6] -0.051 | [7] -0.093 | [8] -0.012 | [9] 0.067 | [10] -0.012

FUS (UniProt P35637)
inactive: [1] -0.23 | [2] 0.039 | [3] 0.083 | [4] 0.019 | [5] -0.023 | [6] 0.009 | [7] 0.025 | [8] -0.016 | [9] -0.006 | [10] 0.038

G3BP1 (UniProt Q13283)
inactive: [1] -0.046 | [2] -0.014 | [3] 0.029 | [4] -0.035 | [5] 0.009 | [6] 0.005 | [7] 0.013 | [8] 0.009 | [9] -0.011 | [10] 0.024

GALNT2 (UniProt Q10471)
inactive: [1] -0.02 | [2] -0.054 | [3] 0.003 | [4] 0.008 | [5] 0.008 | [6] 0.081 | [7] -0.067 | [8] -0.004 | [9] -0.002 | [10] -0.031

GALT (UniProt P07902)
inactive: [1] -0.012 | [2] 0.01 | [3] 0.106 | [4] 0.037 | [5] -0.038 | [6] -0.029 | [7] 0.036 | [8] 0.054 | [9] 0.027 | [10] -0.096

GALNT1 (UniProt Q10472)
inactive: [1] 0.007 | [2] 0.115 | [3] -0.024 | [4] 0.004 | [5] 0.029 | [6] 0.043 | [7] 0.018 | [8] 0.007 | [9] 0.025 | [10] 0.035

GGA2 (UniProt Q9UJY4)
inactive: [1] -0.028 | [2] -0.047 | [3] -0.043 | [4] 0 | [5] 0.032 | [6] -0.022 | [7] -0.003 | [8] 0.066 | [9] 0.043 | [10] 0.001

GABARAPL2 (UniProt P60520)
inactive: [1] -0.046 | [2] 0.005 | [3] 0.03 | [4] 0.028 | [5] 0.007 | [6] 0.03 | [7] 0.045 | [8] -0.033 | [9] -0.007 | [10] 0.024

GAR1 (UniProt Q9NY12)
inactive: [1] 0.018 | [2] -0.008 | [3] 0.015 | [4] 0.008 | [5] -0.009 | [6] -0.003 | [7] 0.014 | [8] -0.01 | [9] 0.024 | [10] 0.004

FYB1 isoform 3 (UniProt O15117)
inactive: [1] 0.042 | [2] 0.004 | [3] -0.017 | [4] -0.025 | [5] 0.001 | [6] -0.068 | [7] -0.012 | [8] 0.034 | [9] 0.005 | [10] 0.021

GAK (UniProt O14976)
inactive: [1] 0.146 | [2] 0.32 | [3] 0.561 | [4] 0.063 | [5] -0.024 | [6] -0.168 | [7] -0.418 | [8] 0.527 | [9] -0.006 | [10] -0.031

GFI1B (UniProt Q5VTD9)
inactive: [1] 0.383 | [2] -0.301 | [3] -0.153 | [4] -0.344 | [5] -0.043 | [6] -0.173 | [7] 0.139 | [8] 0.144 | [9] -0.113 | [10] 0.2

FOXRED1 (UniProt Q96CU9)
inactive: [1] -0.003 | [2] -0.025 | [3] -0.044 | [4] -0.051 | [5] -0.017 | [6] -0.021 | [7] -0.011 | [8] 0.005 | [9] 0.018 | [10] -0.032
